PubChem BioAssay AID504786, Drosophila RNAi Screening Center, 2011

Purpose: 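Positive regulators of HIF-driven reporter output in Drosophila cells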 (primary screen)
Cell system: Drosophila S2 cells with a stable HIF luciferase reporter
Reagent: long dsRNA against Drosophila genes, about 0.2 µg dsRNA per well of a 384-well plate
Time to read-out: three days of knock-down, then 20 h of DFO before reading
Treatment: desferrioxamine (DFO) at 100 µM, an iron chelator that mimics hypoxia, for 20 h
Measurement: 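Firefly luciferase driven by the mouse ldh-a hypoxia-response element, measured after 20 h of 100 µM DFO; z-scores per plate, higher means more signal lost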
Reading the numbers: z-score: higher = stronger loss of HIF reporter signal
The screen tested about 21,000 reagents; below is an unselected part of those with a known target gene and a result. 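Primary screen; positive scores mean lost reporter signal, so the sign may be inverted from the usual convention.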 Names joined by + are all predicted targets of the reagent. Not all columns of the deposit are shown.

With knock-down of Cwc25 [DRSC00545] the results were z-score, replicate 1 = 0.5. For Gyf [DRSC17202], the values are z-score, replicate 1 = -0.2. Against CG10428 [DRSC02054], the values are z-score, replicate 1 = -0.4. Silencing of CG30384 [DRSC06032] resulted in: z-score, replicate 1 = -0.3. After knock-down of Sil1 [DRSC14242] the results were z-score, replicate 1 = -0.2. After knock-down of Tsp42Ep [DRSC06871], the screen gave z-score, replicate 1 = -0.1.

Nup153 [DRSC19904] showed z-score, replicate 1 = 5.5. Knock-down of Tgt [DRSC00672] came out at: z-score, replicate 1 = -0.2. With knock-down of lncRNA:CR40629 [DRSC20959], the screen gave z-score, replicate 1 = 0. PGRP-LE [DRSC20137] gave z-score, replicate 1 = -0.2. With knock-down of ND-30 [DRSC08243] the results were z-score, replicate 1 = 0.3. Silencing of rgr [DRSC06487] came out at: z-score, replicate 1 = -0.3.

rgr [DRSC07229] showed z-score, replicate 1 = -0.2. With knock-down of Nna1 [DRSC19404] the results were z-score, replicate 1 = -0.3. For CG13380 + CG4174 [DRSC09988], the values are z-score, replicate 1 = -0.3. Silencing of CG13380 + CG4174 [DRSC10406] resulted in: z-score, replicate 1 = -0.3. For RpL37-2 [DRSC04584], the values are z-score, replicate 1 = -0.4. After knock-down of sqa [DRSC06693], the record shows z-score, replicate 1 = -0.4.

CG5883 [DRSC10552] showed z-score, replicate 1 = -0.2. Against Src64B [DRSC08700] the deposit lists z-score, replicate 1 = -0.2.

An excerpt from the list above, for reference:
Sil1 [DRSC14242] | z-score, replicate 1 = -0.2
Tsp42Ep [DRSC06871] | z-score, replicate 1 = -0.1
Nup153 [DRSC19904] | z-score, replicate 1 = 5.5
Tgt [DRSC00672] | z-score, replicate 1 = -0.2
lncRNA:CR40629 [DRSC20959] | z-score, replicate 1 = 0
PGRP-LE [DRSC20137] | z-score, replicate 1 = -0.2

Next reagents follow.
Knock-down of CG14667 [DRSC12253] gave: z-score, replicate 1 = -0.4. Shawl [DRSC02209] showed z-score, replicate 1 = -0.3. For Shawl [DRSC02748] the deposit lists z-score, replicate 1 = -0.3. Knock-down of CG14770 [DRSC17947] gave: z-score, replicate 1 = -0.2. Indy-2 + CG33934 [DRSC15685] showed z-score, replicate 1 = -0.2. Against Indy-2 + CG33934 [DRSC15686], the entry reads z-score, replicate 1 = -0.4.

With knock-down of neo [DRSC16316], the screen gave z-score, replicate 1 = -0.3. Silencing of ds [DRSC00815] gave: z-score, replicate 1 = 0. With knock-down of Cpr72Ea [DRSC10451] the results were z-score, replicate 1 = -0.3. ebd1 [DRSC08565] scored z-score, replicate 1 = -0.2. With knock-down of LysS [DRSC08677], the record shows z-score, replicate 1 = -0.4. CG1737 [DRSC19771] scored z-score, replicate 1 = 0.2.

Silencing of Cpr49Ac [DRSC07199] came out at: z-score, replicate 1 = -0.3. CG42232 [DRSC15018] showed z-score, replicate 1 = 0.2. For CG42232 [DRSC15019] the deposit lists z-score, replicate 1 = -0.2. Against CG13698 [DRSC10047], the entry reads z-score, replicate 1 = -0.3. Knock-down of Eip74EF [DRSC10613] gave: z-score, replicate 1 = 1.4. Knock-down of Eip74EF [DRSC11160] resulted in: z-score, replicate 1 = -0.5.

Against eIF2A [DRSC11825] the deposit lists z-score, replicate 1 = -0.3. Silencing of spdi [DRSC18487] gave: z-score, replicate 1 = -0.2. With knock-down of spdi [DRSC18488] the results were z-score, replicate 1 = -0.3.
